Hit rate of the full screen: of about 580,000 compounds, about 6,100 (1.1%) were called active. A call without a number means that no potency is given here. The shares of active, inactive and inconclusive entries below differ from those in the screen. Calls follow the shape of the dose curve; as a rule, active = well fitted inhibition curve with a large enough effect; inconclusive = small, poorly fitted or top-dose-only effect, or another doubt; inactive = no such curve, though single readings can be large or run the other way. Potencies of inconclusive entries are doubtful fits and often do not repeat. Square brackets hold non-standard residues; d marks the D form. Peptide text beside a SMILES is read from it. * marks the point of attachment. Fmoc = O=C(OCC1c2ccccc2-c2ccccc21)*; AMC = Cc1cc(=O)oc2cc(N*)ccc12; Cha = N[CH](CC1CCCCC1)C(=O)O
target: Polyunsaturated fatty acid lipoxygenase ALOX12 (Homo sapiens) (UniProt P18054); experiment: Primary qHTS assay for inhibitors of human arachidonate 12S-lipoxygenase (ALOX12): Round 2; conditions: purified 12hLO, xylenol orange hydroperoxide absorbance; series mostly up to 108 µM
Summary of the method: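 Hydroperoxide product was detected by ferrous iron/xylenol orange as the 573 to 405 nm absorbance ratio. Arachidonic acid at 40 uM (final) was turned over for 30 min at room temperature by 150 nM human 12hLO, pH 7.0 Hepes buffer, after 15 min compound preincubation.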
Potency is read from the fitted curve at half-maximal effect.

Amino acid sequences for entries named in this document (tags omitted). A change or cut given only in a name is not applied to a line headed by its entry.
UniProt P18054: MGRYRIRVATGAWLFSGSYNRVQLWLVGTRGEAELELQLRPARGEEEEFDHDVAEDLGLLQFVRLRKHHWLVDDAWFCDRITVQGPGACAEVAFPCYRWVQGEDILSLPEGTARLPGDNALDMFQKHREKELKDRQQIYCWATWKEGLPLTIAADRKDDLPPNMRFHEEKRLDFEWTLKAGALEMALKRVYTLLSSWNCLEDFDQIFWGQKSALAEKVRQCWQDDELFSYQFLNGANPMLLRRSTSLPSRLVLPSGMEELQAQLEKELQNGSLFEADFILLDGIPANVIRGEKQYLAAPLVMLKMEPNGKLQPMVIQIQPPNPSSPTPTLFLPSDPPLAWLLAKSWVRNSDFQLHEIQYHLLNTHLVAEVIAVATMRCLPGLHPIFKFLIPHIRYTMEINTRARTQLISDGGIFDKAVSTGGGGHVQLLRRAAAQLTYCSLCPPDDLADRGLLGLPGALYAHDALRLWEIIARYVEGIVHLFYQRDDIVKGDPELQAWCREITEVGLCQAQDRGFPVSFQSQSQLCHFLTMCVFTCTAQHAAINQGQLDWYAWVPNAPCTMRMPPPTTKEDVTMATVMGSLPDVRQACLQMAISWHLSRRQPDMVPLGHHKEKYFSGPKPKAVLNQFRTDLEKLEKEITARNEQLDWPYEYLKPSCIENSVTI

| SMILES | Potency |
| --- | --- |
| CCOCCc1nnc(NC(=O)C2CC(=O)N(c3ccc(OCC)cc3)C2)s1 (stereo not given) | inactive |
| S=C(Nc1ccccc1)N(Cc1ccccc1)Cc1ccncc1 | inconclusive: 100 µM [inhibitor, single point] |
| COc1ccc(/C=C/C(=O)Nc2ccc3nc4c(c(Nc5ccc(OC)c(OC)c5)c3c2)CCCC4)cc1 | inconclusive: 50.1 µM [inhibitor, partial curve, poor fit] |
| CC(C)NC(=S)N/N=C/C1CCCCC1 | inconclusive: 89.1 µM [inhibitor, partial curve, poor fit] |
| CC1CCCN(C(=O)CCc2c[nH]c3ccccc23)C1 (stereo not given) | inactive |
| Cc1occc1-c1nnc(SC(C)C(=O)N2CCc3ccccc32)o1 (stereo not given) | inactive |
| CCNS(=O)(=O)c1ccc(OCCNS(C)(=O)=O)cc1 | inactive |
| CCCc1nn2cc(-c3ccc(C)c(C)c3)nc2s1 | inactive |
| COc1cccc(/C=C/C2=CC(C)(C)NC(=S)N2)c1 | inconclusive: 44.7 µM [inhibitor, partial curve, poor fit] |
| Cn1cccc1CN1CCC2(CC1)COc1ccccc1C(=O)N2 | active: 56.2 µM |
| C[C@@H]1CN([C@@H](C)CO)C(=O)CCCn2cc(nn2)CO[C@H]1CN(C)S(=O)(=O)c1cccc(C#N)c1 | inconclusive: 4.47 µM [inhibitor, full curve, poor fit] |
| COc1ccc(-c2cc(N3CCCC(NC(=O)Cc4ccc(OC)c(OC)c4)C3)n[nH]2)cc1 (stereo not given) | inactive |
| Cc1cc(N/N=C/c2ccc(Cl)c([N+](=O)[O-])c2)nc2ccccc12 | inconclusive: 100 µM [inhibitor, single point] |
| O=C(Nc1cccc(Cl)c1)Nc1ccc2nccnc2c1 | inactive |
| Cc1cc(CNC(=O)COc2c(F)c(F)cc(F)c2F)c2ccccc2n1 | inactive |
| O=C(CCCSc1nc2ccccc2[nH]1)N1CCN(c2ccc([N+](=O)[O-])cc2)CC1 | inconclusive: 35.5 µM [inhibitor, single point] |
| COc1ccc2c(-c3ccccc3)cc(=S)[nH]c2c1 | inconclusive: 39.8 µM [inhibitor, partial curve, poor fit] |
| Cc1cc(=O)oc2cc(NC(=O)C(CCCCN)NC(=O)C(CC3CCCCC3)NC(=O)OCC3c4ccccc4-c4ccccc43)ccc12 (stereo not given) (Fmoc-[Cha]-Lys-{AMC}; configuration not given here) | inconclusive: 50.1 µM [inhibitor, partial curve, poor fit] |
| CCc1ccc(NS(=O)(=O)c2ccc(OC)c(C)c2)cc1 | inactive |
| O=C1CCC(=O)c2oc3ccccc3c2N1 | inactive |

Copied from the list.
Value of `COc1ccc(-c2cc(N3CCCC(NC(=O)Cc4ccc(OC)c(OC)c4)C3)n[nH]2)cc1` (stereo not given) under Potency: inactive
Value of `Cc1cc(=O)oc2cc(NC(=O)C(CCCCN)NC(=O)C(CC3CCCCC3)NC(=O)OCC3c4ccccc4-c4ccccc43)ccc12` (stereo not given) (Fmoc-[Cha]-Lys-{AMC}; configuration not given here) under Potency: inconclusive: 50.1 µM [inhibitor, partial curve, poor fit]

Source: PubChem BioAssay AID1671190 (National Center for Advancing Translational Sciences (NCATS), 2021)
